Measurements taken from PubChem BioAssay AID1671190 (National Center for Advancing Translational Sciences (NCATS), 2021).
Where “and” joins values, the source holds several entries; their conditions need not be identical. Equal values may be shown once. The campaign covered roughly 580,000 compounds. About 6,100 (1.1%) were called active. Inconclusive means that the source gave no clear call. Such entries were picked first, then a sample of the others. The call rests on the fitted dose curve; in most records, active means well fitted inhibition curve with a large enough effect; inconclusive means small, poorly fitted or top-dose-only effect, or another doubt; inactive means no such curve, though single readings can be large or run the other way. Potencies of inconclusive entries are doubtful fits and often do not repeat.

Sequences of proteins named here, by UniProt entry; tags and fusion partners are left off.
UniProt P18054, whole entry, looked up: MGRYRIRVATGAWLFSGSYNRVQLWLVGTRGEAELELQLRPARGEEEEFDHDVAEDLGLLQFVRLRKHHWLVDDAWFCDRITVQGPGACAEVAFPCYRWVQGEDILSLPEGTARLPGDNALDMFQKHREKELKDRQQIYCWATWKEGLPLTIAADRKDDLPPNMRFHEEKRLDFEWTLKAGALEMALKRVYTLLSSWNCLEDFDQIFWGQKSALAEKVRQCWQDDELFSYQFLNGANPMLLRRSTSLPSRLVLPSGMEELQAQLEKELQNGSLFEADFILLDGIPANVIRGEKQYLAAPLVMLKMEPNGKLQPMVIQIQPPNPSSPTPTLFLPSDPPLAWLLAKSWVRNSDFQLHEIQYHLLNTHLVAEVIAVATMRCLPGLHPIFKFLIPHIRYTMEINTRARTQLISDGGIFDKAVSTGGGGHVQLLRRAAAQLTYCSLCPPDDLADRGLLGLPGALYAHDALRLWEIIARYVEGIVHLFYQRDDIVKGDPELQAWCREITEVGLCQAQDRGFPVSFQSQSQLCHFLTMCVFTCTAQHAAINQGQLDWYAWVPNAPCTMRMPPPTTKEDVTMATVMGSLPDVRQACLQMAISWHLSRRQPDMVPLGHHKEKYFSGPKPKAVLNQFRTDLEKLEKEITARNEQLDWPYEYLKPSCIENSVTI

biological target: Polyunsaturated fatty acid lipoxygenase ALOX12 (Homo sapiens) (UniProt P18054); experiment: Primary qHTS assay for inhibitors of human arachidonate 12S-lipoxygenase (ALOX12): Round 2; details: purified 12hLO, xylenol orange hydroperoxide absorbance; activity change, negative = inhibition: at 108 µM (top of the series) unless noted
In short: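 Purified human 12hLO at 150 nM in 25 mM Hepes, 0.01% Triton X-100, pH 7.0, preincubated 15 min at room temperature with compound. Reaction started with 40 uM arachidonic acid, 30 min at room temperature. Hydroperoxide measured by Fe-xylenol orange, 573/405 nm absorbance ratio.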
On the % scale 0 is the no-effect control and ±100 the full control effect; potency means the concentration at half of the fitted maximal effect.

| Structure (SMILES) | Potency | activity change, negative = inhibition |
| --- | --- | --- |
| Cc1cccc(OC(C)C(=O)Nc2nc(-c3ccncc3)cs2)c1 (centres undefined) | inconclusive: 79.4 µM [inhibitor, partial curve, poor fit] |  |
| CCOC(=O)C1=C(c2ccccc2)NC(SC)=C(C#N)C1c1cccnc1 (centres undefined) | inactive |  |
| Cc1nc2c(-c3ccc(F)cc3)c(C)nn2c(C)c1CCC(=O)NCc1ccc(Cl)cc1 | inactive |  |
| CCOc1ccc(CNC2CCCc3ccccc32)cc1 (centres undefined) | inconclusive: 20 µM [inhibitor, partial curve, poor fit] and inconclusive: 562 nM [inhibitor, full curve, poor fit] |  |
| CCOc1ccc(NC(=O)c2ccc(-c3ccccc3)s2)cc1 | inconclusive: 56.2 µM [inhibitor, partial curve, poor fit] |  |
| COc1ccccc1C1=NNC(=Nc2cccc(S(=O)(=O)N(C)C)c2)SC1 | inconclusive: 44.7 µM [inhibitor, partial curve] |  |
| CCCN(C(=O)C(=O)c1c[nH]c2ccccc12)c1ccc(F)cc1 | inconclusive: 0.355 µM [inhibitor, full curve, poor fit] |  |
| COc1ccc(C(=O)Oc2ccc(/C=C(/C#N)C(=O)Nc3ccccc3C(F)(F)F)cc2)cc1 | inconclusive: 31.6 µM [inhibitor, single point] |  |
| Cc1cc(C)n(C(C)n2nc(C)cc2C)n1 | inconclusive: 39.8 µM [inhibitor, single point] |  |
| COc1ccc2cc(C(=O)NCC3(N(C)C)CCCCCC3)[nH]c2c1 | inconclusive: 50.1 µM [inhibitor, partial curve, poor fit] |  |
| CC(C)Cc1ccc(C(C)/C=C2/CCC(CN3CCCCC3)C2=O)cc1 (centres undefined) | inconclusive: 39.8 µM [inhibitor, partial curve, poor fit] |  |
| Cc1ccc(CCN2CCC3(Cc4ccccc4CNC3=O)C2)cc1 (centres undefined) | active: 12.6 µM |  |
| CC(C)Cc1cc(C(=O)NCc2noc(-c3c(F)cccc3F)n2)no1 | inactive |  |
| Cc1cc(C)c(NC(=O)Cc2cccs2)c(Cl)c1 | inconclusive: 50.1 µM [inhibitor, partial curve, poor fit] |  |
| Cc1ocnc1C(=O)N(C)CC1CCCN(CCc2ccc(Cl)cc2)C1 (centres undefined) | inconclusive: 7.94 µM [inhibitor, full curve] |  |
| Cc1nc2cc(NC(=O)c3ccc(F)cc3)ccc2o1 | inactive |  |
| O=C(CSc1ccc2c(c1)OCCCO2)Nc1cccc2ccccc12 | active: 15.8 µM |  |
| COc1cc(-c2cc(O)c(-c3ccc4ccccc4n3)c(=O)[nH]2)cc(OC)c1OC | inactive |  |
| CCCNc1c(NS(=O)(=O)c2ccc(F)c(F)c2)c(=O)oc2ccccc12 | inconclusive: 44.7 µM [inhibitor, partial curve, poor fit] |  |
| COc1ccccc1N1CCN(CC(O)COc2cc(C)cc(C)c2)CC1 (centres undefined) | inconclusive: 44.7 µM [inhibitor, partial curve, poor fit] |  |
| O=C1COCCN1c1cc(-c2cccc(F)c2)cn2cncc12 | inactive |  |
| CC1CC1c1ccc(/C=C(\C#N)C(=O)Nc2ccc(Cl)cc2)o1 (centres undefined) | inconclusive: 50.1 µM [inhibitor, partial curve, poor fit] |  |

Copied from the list.
O=C1COCCN1c1cc(-c2cccc(F)c2)cn2cncc12 – Potency: inactive
CCOc1ccc(NC(=O)c2ccc(-c3ccccc3)s2)cc1 – Potency: inconclusive: 56.2 µM [inhibitor, partial curve, poor fit]

(cont.)

| Structure (SMILES) | Potency | activity change, negative = inhibition |
| --- | --- | --- |
| O=[N+]([O-])c1ccccc1NN=C1CCCC1 | inconclusive: 11.2 µM [inhibitor, full curve, poor fit] |  |
| CC(=O)NC(Nc1cccc(C(F)(F)F)c1)C(Cl)(Cl)Cl (centres undefined) | inactive |  |
| O=C1C(Cl)=C(NCCCN2CCOCC2)C(=O)c2ccccc21 | inconclusive: 63.1 µM [inhibitor, partial curve, poor fit] |  |
| CCN(CC)S(=O)(=O)c1ccc(NC(=O)COc2ccc3c(C)cc(=O)oc3c2)cc1 | inactive |  |
| COc1cccc2cc(C(=O)Nc3ccc(S(=O)(=O)NCC4CCCO4)cc3)c(=O)oc12 (centres undefined) | inconclusive: 31.6 µM [inhibitor, partial curve, poor fit] |  |
| CC(N)c1cccc(S(N)(=O)=O)c1 (centres undefined) | inactive |  |
| CCC(=O)N(Cc1cc(=O)[nH]c2ccccc12)c1cccc(C)c1 | inconclusive: 50.1 µM [inhibitor, partial curve, poor fit] |  |
| CCCCN1C(=O)C2(NNc3ccccc3O2)c2ccccc21 (centres undefined) | inconclusive: 31.6 µM [inhibitor, partial curve, poor fit] |  |
| COc1cc(C)c(NC(=S)Nc2ccc(Cl)c(Cl)c2)cc1OC | inconclusive: 44.7 µM [inhibitor, partial curve] |  |
| COc1ccc(CNCc2cccc3ccccc23)cc1 | inconclusive: 0.891 µM [inhibitor, full curve, poor fit] |  |
| COc1cccc(N2C(=O)NC(=NC3CCCCC3)C23CCN([S+](=O)([O-])c2cccc(OC)c2)CC3)c1 |  | inactive: 2.41% [at 6.33 µM] |
| CC(NC(=O)N1CCOCC1)c1ccccc1 (centres undefined) | inconclusive: 10 µM [inhibitor, full curve] |  |
| c1ccc(-c2ccc(-c3nc(-c4cccnc4)no3)cc2)cc1 | inactive |  |
| CCCCCOC(=O)c1ccc(NC(=O)c2cccc(NC(=O)c3ccccc3C(=O)O)c2)cc1 | inconclusive: 70.8 µM [inhibitor, partial curve, poor fit] |  |
| CC1CCN(C(=O)c2ccc(SCc3ccccc3F)c([N+](=O)[O-])c2)CC1 | inactive |  |
| Cc1ccc(/C(O)=C2/C(=O)C(=O)N(c3ccccn3)C2c2ccc(F)cc2)cc1 (centres undefined) | inconclusive: 10 µM [inhibitor, full curve] |  |
| Cc1ccc(-c2cc(C(=O)NCCc3ccccc3)c3c(-c4ccc(C)cc4)[nH]nc3n2)cc1 | inactive |  |
| CN(C)c1ccc(-c2nc(N(C)C)c3ccccc3n2)cc1 | inconclusive: 3.55 µM [inhibitor, full curve] |  |
| Cc1cc(C)cc(NC(=O)CCNS(=O)(=O)c2cc(Br)cnc2N)c1 | inactive |  |
| COc1ccc(C(=O)Oc2cc(C)cc(OC(=O)c3ccc(OC)cc3)c2)cc1 | inactive |  |
| O=c1c2cc(Cl)ccc2ncn1Cc1nc(-c2ccccc2)no1 | inconclusive: 50.1 µM [inhibitor, partial curve, poor fit] |  |
| Cc1ccccc1Nc1c(-c2ccc(N3CCOCC3)cc2)nc2ncccn12 | inconclusive: 89.1 µM [inhibitor, partial curve, poor fit] |  |
